Entries after “also recorded” stand apart in the source; their conditions may differ. Where a SMILES comes first, the peptide text is derived from it. [ ]: non-standard residue; d: D form.
Key:
[1] = tested on: HeLa cell mitochondria; experiment: Accumulation of FITC-conjugated peptidomimetics in isolated mitochondria and submitochondrial fractions; set-up: species or system human; settings: for accumulation inside purified mitochondria (fluorescence): fluorescein-conjugated, purified HeLa cell mitochondria; for submitochondrial distribution: unfractionated mitochondria, intermembrane space, inner membrane, matrix
[2] = tested on: HeLa cells; experiment: Subcellular localization of FITC-conjugated peptidomimetics in living cells (confocal microscopy, fluorescence of extracts); format: cell-based, human

| Molecule | accumulation inside purified mitochondria (fluorescence) [1] | submitochondrial distribution [1] | efficiency of intramitochondrial penetration (quantified fluorescence intensity) ([1]; isolated mitochondria) | accumulation in total cell extracts and cytosol fractions of treated cells [2] | co-localization with MitoTracker in intact living cells ([2]; confocal microscopy, fluorescein-conjugated) |
| --- | --- | --- | --- | --- | --- |
| Sheph: Shepherdin lacking the Antennapedia cell-penetrating sequence (LFACGSSHK; D-residues) | no fluorescence signal was detected | not found in mitochondria or any sub-mitochondrial compartment |  |  |  |
| CSCC[C@@H](NC(=O)[C@@H](CCCCN)NC(=O)[C@@H](Cc1c[nH]c2ccccc12)NC(=O)[C@@H](CCCCN)NC(=O)[C@H](N)CCCCN)C(=O)N[C@H](CCCNC(=N)N)C(=O)N[C@H](CCCNC(=N)N)C(=O)N[C@H](CC(N)=O)C(=O)N[C@H](CCC(N)=O)C(=O)N[C@H](Cc1ccccc1)C(=O)N[C@H](Cc1c[nH]c2ccccc12)C(=O)N[C@@H](C(=O)N[C@H](CCCCN)C(=O)N[C@@H](C(=O)N[C@H](CCC(N)=O)C(=O)N[C@H](CCCNC(=N)N)C(=O)N[C@H](CC(C)C)C(=O)N[C@H](Cc1ccccc1)C(=O)N[C@H](C)C(=O)N[C@H](CS)C(=O)NCC(=O)N[C@H](CO)C(=O)N[C@H](CO)C(=O)N[C@H](Cc1c[nH]cn1)C(=O)N[C@H](CCCCN)C(N)=O)C(C)C)C(C)C [Sheph-ANT] (H-[dK][dK][dW][dK][dM][dR][dR][dN][dQ][dF][dW][dV][dK][dV][dQ][dR][dL][dF][dA][dC]G[dS][dS][dH][dK]-NH2; N-terminus and C-terminus assumed) | accumulated inside the purified mitochondria; also recorded: accumulate in mitochondria | present in unfractionated mitochondria, as well as in all submitochondrial compartments; also recorded: accumulates in the mitochondria, outer membrane/inner membrane space (OM+IMS), and inner membrane/matrix (IM+Matrix) | indistinguishable for efficiency of intramitochondrial penetration; also recorded: accumulate to similar levels in mitochondria | comparably accumulated in total cell extracts and cytosol fractions | co-localized with the reactivity of a mitochondrial marker, MitoTracker |
